Results as given in the supplement of paper PMC4604168 (melanoma cell lines).
The other results are listed elsewhere or left out. Single values are uncertain, as repeats are few or missing.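 The apoptosis fraction was the count of cleaved-PARP antibody-stained nuclei relative to all DNA-stained nuclei, imaged in 1,536-well plates. Screening doses were set so most cells survived, and baseline and induced cleaved-PARP levels vary greatly across cell lines.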

Tested on: WM3619
Assay: cleaved PARP positive nuclei fraction relative to DMSO control; melanoma cells; higher = more apoptosis
Conditions: library dose: low library concentration; 72 h

Compared with `N.N.[Cl][Pt][Cl]` [cisplatin] + OCCn1cc(-c2cnc3nnn(Cc4ccc5ncccc5c4)c3n2)cn1 [PF04217903] (first compound 1.6 µM, partner dose 1 µM), `CNC(=O)c1cc(Oc2ccc(NC(=O)Nc3ccc(Cl)c(C(F)(F)F)c3)cc2)ccn1` [sorafenib] + Cc1cc(SCc2sc(-c3ccc(C(F)(F)F)c(F)c3)nc2C)ccc1OCC(=O)O [GW0742] (first compound 0.4 µM, partner dose 2 µM) is lower in “cleaved PARP positive nuclei fraction” value: 103% for the first, 85.2% for the second.

Going from `Cn1cc(C2=C(c3cn(C4CCN(Cc5ccccn5)CC4)c4ccccc34)C(=O)NC2=O)c2ccccc21` [Enzastaurin] + COc1ccc(COc2ccc(Cc3cnc(N)nc3N)cc2OC)cc1 [GW2580] (first compound 0.8 µM, partner dose 1 µM) to `Cn1sc(=O)n(Cc2ccccc2)c1=O` + O=C(Oc1ccc([N+](=O)[O-])cc1)N1CCC(C(O)(c2ccc3c(c2)OCO3)c2ccc3c(c2)OCO3)CC1 [JZL184] (first compound 0.4 µM, partner dose 1 µM), the “cleaved PARP positive nuclei fraction” value falls from 97.9% to 97.7%.

`Cn1cc(C2=C(c3cn(C4CCN(Cc5ccccn5)CC4)c4ccccc34)C(=O)NC2=O)c2ccccc21` [Enzastaurin] + c1cc(-c2cnn3cc(-c4ccc(OCCN5CCCCC5)cc4)cnc23)ccn1 [Dorsomorphin] (first compound 0.8 µM, partner dose 0.4 µM) and `Cn1cnc2c(F)c(Nc3ccc(Br)cc3Cl)c(C(=O)NOCCO)cc21` [selumetinib] + O=C(Oc1ccc([N+](=O)[O-])cc1)N1CCC(C(O)(c2ccc3c(c2)OCO3)c2ccc3c(c2)OCO3)CC1 [JZL184] (first compound 0.015 µM, partner dose 1 µM) are the same in “cleaved PARP positive nuclei fraction” value: 107% for the first, 107% for the second.

Compared with `C[As](C)SC[C@H](NC(=O)CC[C@H](N)C(=O)O)C(=O)NCC(=O)O` [Darinaparsin] + C=CCn1c(=O)c2cnc(Nc3ccc(N4CCN(C)CC4)cc3)nc2n1-c1cccc(C(C)(C)O)n1 [MK1775] (first compound 0.4 µM, partner dose 0.02 µM), `C=C(c1ccc(C(=O)O)cc1)c1cc2c(cc1C)C(C)(C)CCC2(C)C` [Bexarotene] + O=C(Oc1ccc([N+](=O)[O-])cc1)N1CCC(C(O)(c2ccc3c(c2)OCO3)c2ccc3c(c2)OCO3)CC1 [JZL184] (first compound 2 µM, partner dose 1 µM) is lower in “cleaved PARP positive nuclei fraction” value: 188% for the first, 95.1% for the second.

Going from `Cn1cc(C2=C(c3cn(C4CCN(Cc5ccccn5)CC4)c4ccccc34)C(=O)NC2=O)c2ccccc21` [Enzastaurin] + OCCn1cc(-c2cnc3nnn(Cc4ccc5ncccc5c4)c3n2)cn1 [PF04217903] (first compound 0.8 µM, partner dose 1 µM) to `COc1cc([C@@H]2c3cc4c(cc3[C@@H](O[C@@H]3O[C@@H]5CO[C@@H](C)O[C@H]5[C@H](O)[C@H]3O)[C@H]3COC(=O)[C@H]23)OCO4)cc(OC)c1O` [etoposide] + C/C(O)=C(\C#N)C(=O)Nc1cc(Br)ccc1Br [LFM-A13] (first compound 0.02 µM, partner dose 2 µM), the “cleaved PARP positive nuclei fraction” value rises from 77.2% to 122%.

First: N.N.[Cl][Pt][Cl] [cisplatin] + CN(NC(=O)CC(=O)NN(C)C(=S)c1ccccc1)C(=S)c1ccccc1 [STA4783] (first compound 1.6 µM, partner dose 0.006 µM)
Second: C[As](C)SC[C@H](NC(=O)CC[C@H](N)C(=O)O)C(=O)NCC(=O)O [Darinaparsin] + COc1cc(Nc2ncc(F)c(Nc3ccc4c(n3)NC(=O)C(C)(C)O4)n2)cc(OC)c1OC [Tamatinib] (first compound 0.4 µM, partner dose 0.4 µM)
The “cleaved PARP positive nuclei fraction” value of the first is lower: 112% for the first, 131% for the second.

Compared with `Cn1cc(C2=C(c3cn(C4CCN(Cc5ccccn5)CC4)c4ccccc34)C(=O)NC2=O)c2ccccc21` [Enzastaurin] + COC(=O)c1sccc1S(=O)(=O)Nc1ccc(Nc2ccccc2)cc1OC [GSK0660] (first compound 0.8 µM, partner dose 1 µM), `Nc1ncn([C@H]2C[C@H](O)[C@@H](CO)O2)c(=O)n1` [decitabine] + O=C(Oc1ccc([N+](=O)[O-])cc1)N1CCC(C(O)(c2ccc3c(c2)OCO3)c2ccc3c(c2)OCO3)CC1 [JZL184] (first compound 0.1 µM, partner dose 1 µM) is higher in “cleaved PARP positive nuclei fraction” value: 59% for the first, 96.1% for the second.
